Results are given in words; binding and its absence hold for the method and conditions named. In cells and extracts the contact can be indirect. Some results given as binding are weak or reduced against the parent protein; the word gives no strength. Sequences can lack the tags named with a protein.
T1: GFP-tagged Monosiga brevicollis crka1 (Monosiga brevicollis)
T1 sequence: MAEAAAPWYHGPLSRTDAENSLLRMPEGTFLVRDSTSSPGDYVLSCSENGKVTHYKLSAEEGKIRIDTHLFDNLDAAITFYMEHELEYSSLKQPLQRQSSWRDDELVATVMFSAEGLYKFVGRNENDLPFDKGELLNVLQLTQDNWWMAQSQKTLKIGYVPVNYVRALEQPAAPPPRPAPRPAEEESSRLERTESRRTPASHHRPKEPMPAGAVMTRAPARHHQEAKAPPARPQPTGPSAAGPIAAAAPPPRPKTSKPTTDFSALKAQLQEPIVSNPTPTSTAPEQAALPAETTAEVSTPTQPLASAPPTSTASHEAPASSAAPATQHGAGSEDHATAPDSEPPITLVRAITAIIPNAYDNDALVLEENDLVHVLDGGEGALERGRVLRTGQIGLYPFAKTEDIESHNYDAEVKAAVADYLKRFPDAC

By UniProt entry, the sequences of proteins in these tests, tags left out.
UniProt P46108: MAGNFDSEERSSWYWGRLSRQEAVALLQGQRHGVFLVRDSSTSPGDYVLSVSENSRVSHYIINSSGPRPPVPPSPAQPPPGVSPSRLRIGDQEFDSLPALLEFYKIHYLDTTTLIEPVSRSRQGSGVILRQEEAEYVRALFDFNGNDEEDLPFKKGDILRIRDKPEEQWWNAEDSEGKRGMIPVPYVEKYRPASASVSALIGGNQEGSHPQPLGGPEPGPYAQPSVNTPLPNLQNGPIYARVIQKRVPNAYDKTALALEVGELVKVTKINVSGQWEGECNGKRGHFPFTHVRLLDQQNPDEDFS

B1: RAPGEF1 (C3G) (protein, UniProt Q13905 1-1077)
chain: MDTDSQRSHLSSFTMKLMDKFHSPKIKRTPSKKGKPAEVSVKIPEKPVNKEATDRFLPEGYPLPLDLEQQAVEFMSTSAVASRSQRQKNLSWLEEKEKEVVSALRYFKTIVDKMAIDKKVLEMLPGSASKVLEAILPLVQNDPRIQHSSALSSCYSRVYQSLANLIRWSDQVMLEGVNSEDKEMVTTVKGVIKAVLDGVKELVRLTIEKQGRPSPTSPVKPSSPASKPDGPAELPLTDREVEILNKTTGMSQSTELLPDATDEEVAPPKPPLPGIRVVDNSPPPALPPKKRQSAPSPTRVAVVAPMSRATSGSSLPVGINRQDFDVDCYAQRRLSGGSHSYGGESPRLSPCSSIGKLSKSDEQLSSLDRDSGQCSRNTSCETLDHYDPDYEFLQQDLSNADQIPQQTAWNLSPLPESLGESGSPFLGPPFQLPLGGHPQPDGPLAPGQQTDTPPALPEKKRRSAASQTADGSGCRVSYERHPSQYDNISGEDLQSTAPIPSVPYAPFAAILPFQHGGSSAPVEFVGDFTAPESTGDPEKPPPLPEKKNKHMLAYMQLLEDYSEPQPSMFYQTPQNEHIYQQKNKLLMEVYGFSDSFSGVDSVQELAPPPALPPKQRQLEPPAGKDGHPRDPSAVSGVPGKDSRDGSERAPKSPDALESAQSEEEVDELSLIDHNEIMSRLTLKQEGDDGPDVRGGSGDILLVHATETDRKDLVLYCEAFLTTYRTFISPEELIKKLQYRYEKFSPFADTFKKRVSKNTFFVLVRVVDELCLVELTEEILKLLMELVFRLVCNGELSLARVLRKNILDKVDQKKLLRCATSSQPLAARGVAARPGTLHDFHSHEIAEQLTLLDAELFYKIEIPEVLLWAKEQNEEKSPNLTQFTEHFNNMSYWVRSIIMLQEKAQDRERLLLKFIKIMKHLRKLNNFNSYLAILSALDSAPIRRLEWQKQTSEGLAEYCTLIDSSSSFRAYRAALSEVEPPCIPYLGLILQDLTFVHLGNPDYIDGKVNFSKRWQQFNILDSMRCFQQAHYDMRRNDDIINFFNDFSDHLAEEALWELSLKIKPRNITRRKTDREEKT
B2: HA-tagged mouse Bcar1 co-expressed with activated mouse Src (Y529F), tyrosine-phosphorylated (protein, UniProt Q61140 1-874)
chain: MTVPNVLAKALYDNVAESPDELSFRKGDIMTVLERDTQGLDGWWLCSLHGRQGIVPGNRLKILVGMYDKKPVGPGPGPPATPPQPQPSLPQGVHAPVPPASQYSPMLPTAYQPQSDNVYLVPTPSKTQQGLYQAPGPNPQFQSPPAKQTSTFSKQTPHHSFPSPATDLYQVPPGPGSPAQDIYQVPPSAGIGHDIYQVPPSLDTRGWEGTKPPAKVVVPTRVGQGYVYEAAQTEQDEYDTPRHLLAPGPQDIYDVPPVRGLLPNQYGQEVYDTPPMAVKGPNGRDPLLDVYDVPPSVEKGLLSSSHHSVYDVPPSVSKDVPDGPLLREETYDVPPAFAKPKPFDPTRHPLILAAPPPDSPAAEDVYDVPPPAPDLYDVPPGLRRPGPGTLYDVPRERVLPPEVADGSVVDDGVYAVPPPAEREAPTDGKRLSASSTGSTRSSQSASSLEVVVPGREPLELEVAVESLARLQQGVSTTVAHLLDLVGSASGPGGWRGTSEPQEPPAQDLKAAVAAVHGAVHELLEFARGAVSNATHTSDRTLHAKLSRQLQKMEDVYQTLVVHGQVLDSGRGSPGFTPEDLDRLVACSRAVPEDAKQLASFLHGNASLLFRRTKAPGPGPEGSSSLHPNPTDKASSIQSRPLPSPPKFTSQDSPDGQYENSEGGWMEDYDYVHLQGKEEFEKTQKELLERGNIMRQGKGQLELQQLKQFERLEQEVSRPIDHDLANWTPAQPLVPGRTGGLGPSDRQLLLFYLEQCEANLTTLTDAVDAFFTAVATNQPPKIFVAHSKFVILSAHKLVFIGDTLSRQAKAADVRSQVTHYSNLLCDLLRGIVATTKAAALQYPSPSAAQDMVDRVKELGHSTQQFRRVLGQLAAA
modifications: phosphotyrosine (phosphorylated by co-expressed active Src; sites not stated)
B3: HA-tagged mouse Bcar1 expressed without active Src (protein, UniProt Q61140 1-874)
chain: B2 chain

Biological target: T1, GFP-tagged Monosiga brevicollis crka1 (Monosiga brevicollis)
Assay: co-IP; HEK293 cells transfected with combinations of plasmids, with or without active Src(Y529F); lysates 48 h after transfection; GFP-tagged proteins precipitated with GFP-Trap_A beads; Western blots (anti-HA, anti-C3G, anti-phosphotyrosine)

binding	Binder
binds	B1
binds	B2
binds weakly	B3

Biological target: GFP-tagged human CRK (human) (UniProt P46108)
Assay: as above

binding	Binder
binds	B1
binds	B2
binds weakly	B3

Source: paper PMC5043372
